At least one structure is not confirmed: it was looked up by name or label, or the drawing left a doubt.
Molecular target: T1, ATM kinase (Homo sapiens, UniProt Q13315)
T1 construct: The full-length cDNA encoding NH2-terminal, FLAG-tagged wild-type ATM; made in house; host or cells: 293T cells, transient transfection with pcDNA-FLAG-ATMwt, anti-FLAG M2 immunoprecipitate on beads
Experiment: In vitro kinase assay, ATM with GST-peptide / GST-fusion substrates;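 also: immunoprecipitated ATM incubated with [γ-32P]ATP at 30 °C for 20 min, substrates resolved by SDS-PAGE and radiolabel incorporation quantified by PhosphorImager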
Format: biochemical
Conditions: endogenous ATM immunoprecipitated under mild conditions

Protein sequences, listed by entry. Tags and fused reporters are not part of them. Lines headed by an entry give the natural chain unless they say otherwise; changes in a name come on top.
UniProt Q13315: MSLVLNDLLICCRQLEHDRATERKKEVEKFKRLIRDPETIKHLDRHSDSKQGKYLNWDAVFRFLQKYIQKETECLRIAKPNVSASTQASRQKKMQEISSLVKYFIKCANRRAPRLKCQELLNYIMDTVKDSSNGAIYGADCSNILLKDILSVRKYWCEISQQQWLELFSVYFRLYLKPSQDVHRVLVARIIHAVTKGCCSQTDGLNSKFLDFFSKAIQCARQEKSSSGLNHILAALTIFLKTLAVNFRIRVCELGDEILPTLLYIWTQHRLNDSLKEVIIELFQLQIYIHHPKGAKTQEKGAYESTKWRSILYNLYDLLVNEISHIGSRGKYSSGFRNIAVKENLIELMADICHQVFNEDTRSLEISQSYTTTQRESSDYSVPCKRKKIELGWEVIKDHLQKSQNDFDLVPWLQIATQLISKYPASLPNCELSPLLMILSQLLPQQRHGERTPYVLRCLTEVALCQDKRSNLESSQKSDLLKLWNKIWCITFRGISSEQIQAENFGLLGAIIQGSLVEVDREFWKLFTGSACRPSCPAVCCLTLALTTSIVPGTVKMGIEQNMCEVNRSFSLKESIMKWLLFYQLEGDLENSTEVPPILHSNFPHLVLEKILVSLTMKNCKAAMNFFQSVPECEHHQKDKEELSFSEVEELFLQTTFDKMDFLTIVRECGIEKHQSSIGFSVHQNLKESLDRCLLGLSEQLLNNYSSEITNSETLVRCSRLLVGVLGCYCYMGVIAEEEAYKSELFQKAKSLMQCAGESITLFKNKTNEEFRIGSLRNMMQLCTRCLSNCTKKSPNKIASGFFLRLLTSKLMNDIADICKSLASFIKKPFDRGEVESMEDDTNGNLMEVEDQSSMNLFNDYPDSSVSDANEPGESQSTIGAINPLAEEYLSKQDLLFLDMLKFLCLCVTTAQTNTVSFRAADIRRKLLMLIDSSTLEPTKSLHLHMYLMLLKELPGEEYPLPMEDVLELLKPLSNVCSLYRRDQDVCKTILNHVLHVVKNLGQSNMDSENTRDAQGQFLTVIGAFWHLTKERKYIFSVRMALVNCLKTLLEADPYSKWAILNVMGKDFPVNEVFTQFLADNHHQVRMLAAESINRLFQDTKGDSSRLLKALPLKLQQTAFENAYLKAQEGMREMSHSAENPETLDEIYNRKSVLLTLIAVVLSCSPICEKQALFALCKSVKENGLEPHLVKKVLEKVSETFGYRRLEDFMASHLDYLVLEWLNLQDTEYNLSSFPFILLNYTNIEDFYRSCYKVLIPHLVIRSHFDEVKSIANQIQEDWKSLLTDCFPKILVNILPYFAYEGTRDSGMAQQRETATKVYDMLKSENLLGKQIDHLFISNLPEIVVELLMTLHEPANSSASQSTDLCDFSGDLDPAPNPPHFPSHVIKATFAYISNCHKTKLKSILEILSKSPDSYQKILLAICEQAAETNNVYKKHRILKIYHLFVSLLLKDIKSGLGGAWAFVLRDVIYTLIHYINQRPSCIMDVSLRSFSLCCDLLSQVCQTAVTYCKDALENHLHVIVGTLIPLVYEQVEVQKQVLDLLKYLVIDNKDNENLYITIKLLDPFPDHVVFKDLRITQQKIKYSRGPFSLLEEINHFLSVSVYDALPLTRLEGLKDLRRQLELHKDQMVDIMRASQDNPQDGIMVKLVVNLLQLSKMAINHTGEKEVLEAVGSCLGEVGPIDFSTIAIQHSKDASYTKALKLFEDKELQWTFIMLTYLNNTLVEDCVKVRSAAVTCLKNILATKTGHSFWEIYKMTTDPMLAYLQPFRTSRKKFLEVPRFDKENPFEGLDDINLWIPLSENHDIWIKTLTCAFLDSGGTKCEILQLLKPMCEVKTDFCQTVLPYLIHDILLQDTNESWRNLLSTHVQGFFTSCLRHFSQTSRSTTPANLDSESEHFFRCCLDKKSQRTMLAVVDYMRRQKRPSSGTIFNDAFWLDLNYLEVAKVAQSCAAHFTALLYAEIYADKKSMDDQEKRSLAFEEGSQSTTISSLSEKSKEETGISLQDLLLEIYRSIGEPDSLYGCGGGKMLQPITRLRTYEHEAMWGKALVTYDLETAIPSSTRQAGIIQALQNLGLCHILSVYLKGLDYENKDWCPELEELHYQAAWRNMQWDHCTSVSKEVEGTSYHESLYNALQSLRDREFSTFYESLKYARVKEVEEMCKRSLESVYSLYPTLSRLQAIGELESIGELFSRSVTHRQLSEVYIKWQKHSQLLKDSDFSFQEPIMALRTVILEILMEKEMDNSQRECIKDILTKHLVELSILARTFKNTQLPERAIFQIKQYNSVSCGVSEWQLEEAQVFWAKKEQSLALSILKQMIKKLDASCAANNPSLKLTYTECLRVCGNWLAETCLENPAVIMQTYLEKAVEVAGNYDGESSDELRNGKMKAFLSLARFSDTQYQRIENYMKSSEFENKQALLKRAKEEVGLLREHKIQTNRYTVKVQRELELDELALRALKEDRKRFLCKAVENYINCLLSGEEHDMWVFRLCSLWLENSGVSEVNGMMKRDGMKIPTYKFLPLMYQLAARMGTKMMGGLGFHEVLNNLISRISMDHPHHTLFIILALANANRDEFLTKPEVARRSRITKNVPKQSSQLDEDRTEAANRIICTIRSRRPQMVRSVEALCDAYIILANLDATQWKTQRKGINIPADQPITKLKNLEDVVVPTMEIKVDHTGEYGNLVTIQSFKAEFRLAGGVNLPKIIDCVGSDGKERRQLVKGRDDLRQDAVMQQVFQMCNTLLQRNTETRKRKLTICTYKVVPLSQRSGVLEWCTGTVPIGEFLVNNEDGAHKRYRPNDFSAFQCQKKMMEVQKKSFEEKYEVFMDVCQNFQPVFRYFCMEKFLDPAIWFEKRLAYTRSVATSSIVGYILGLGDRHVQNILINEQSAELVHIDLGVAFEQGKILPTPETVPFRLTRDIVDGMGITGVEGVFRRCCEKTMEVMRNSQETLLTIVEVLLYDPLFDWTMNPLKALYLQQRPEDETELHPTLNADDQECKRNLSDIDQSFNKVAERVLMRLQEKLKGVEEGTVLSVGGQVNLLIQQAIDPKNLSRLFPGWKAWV

## CC[n+]1c(-c2ccccc2)c2cc(N)ccc2c2ccc(N)cc21 [ethidium bromide, reference compound]
  effect of addition on activity of endogenous ATM: neither the exogenous addition of DNA ends nor the presence of ethidium bromide to inactivate potential contamination from endogenous DNA had any effect
